Laboratory results taken from publication PMC8274477.
These are yes or no findings as the source states them, for the method shown. Some binding calls cover weakened binding; strength is not graded here.

Amino acid sequences for entries named in this document (tags omitted).
UniProt Q8IZ83: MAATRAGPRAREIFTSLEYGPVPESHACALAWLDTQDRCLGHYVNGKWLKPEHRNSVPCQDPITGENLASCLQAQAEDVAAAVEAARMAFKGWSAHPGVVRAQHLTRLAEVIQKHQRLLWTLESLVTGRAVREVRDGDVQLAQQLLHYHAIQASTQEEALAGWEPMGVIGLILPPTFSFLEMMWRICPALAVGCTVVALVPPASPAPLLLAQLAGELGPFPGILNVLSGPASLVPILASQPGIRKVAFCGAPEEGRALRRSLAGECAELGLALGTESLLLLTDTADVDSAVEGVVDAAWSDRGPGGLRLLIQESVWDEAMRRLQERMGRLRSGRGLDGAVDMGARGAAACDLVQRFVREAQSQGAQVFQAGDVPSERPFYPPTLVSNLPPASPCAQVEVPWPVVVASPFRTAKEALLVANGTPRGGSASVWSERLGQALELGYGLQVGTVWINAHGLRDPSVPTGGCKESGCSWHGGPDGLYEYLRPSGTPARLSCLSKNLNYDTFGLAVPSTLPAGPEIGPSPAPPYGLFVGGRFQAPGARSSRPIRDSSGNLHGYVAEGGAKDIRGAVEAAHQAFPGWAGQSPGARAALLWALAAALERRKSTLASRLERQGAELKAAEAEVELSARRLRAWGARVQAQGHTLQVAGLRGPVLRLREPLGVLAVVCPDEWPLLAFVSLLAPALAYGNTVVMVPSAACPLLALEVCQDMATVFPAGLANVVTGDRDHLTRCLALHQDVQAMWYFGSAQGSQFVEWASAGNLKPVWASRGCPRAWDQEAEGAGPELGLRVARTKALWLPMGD
UniProt Q96LT6: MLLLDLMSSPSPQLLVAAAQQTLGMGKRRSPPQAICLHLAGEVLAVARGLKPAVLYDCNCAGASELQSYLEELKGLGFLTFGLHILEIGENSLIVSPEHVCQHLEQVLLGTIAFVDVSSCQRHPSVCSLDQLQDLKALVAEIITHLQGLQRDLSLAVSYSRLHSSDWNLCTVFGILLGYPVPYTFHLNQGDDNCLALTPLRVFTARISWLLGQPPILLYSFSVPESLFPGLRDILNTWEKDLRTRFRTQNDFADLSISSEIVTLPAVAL
UniProt Q9C0E8: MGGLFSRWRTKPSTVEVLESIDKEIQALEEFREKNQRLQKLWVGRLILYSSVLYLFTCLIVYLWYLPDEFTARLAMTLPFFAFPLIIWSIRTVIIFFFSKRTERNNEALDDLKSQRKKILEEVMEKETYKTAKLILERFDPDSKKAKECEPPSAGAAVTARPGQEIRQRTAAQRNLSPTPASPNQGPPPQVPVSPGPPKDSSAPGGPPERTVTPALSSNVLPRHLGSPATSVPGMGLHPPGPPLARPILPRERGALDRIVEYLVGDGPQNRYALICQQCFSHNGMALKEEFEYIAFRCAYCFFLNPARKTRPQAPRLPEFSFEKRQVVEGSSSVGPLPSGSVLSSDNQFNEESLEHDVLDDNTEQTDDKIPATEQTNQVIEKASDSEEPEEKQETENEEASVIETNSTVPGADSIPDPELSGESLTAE

Legend:
Assay in all cases: peptide or protein array; HuProt human proteome microarray; 5 ug/5 ml biotin-labelled LUBAC or OTULIN in solution, 1 h at room temperature; Cy5-streptavidin, scanned at 635 nm; BSA as negative control; hits: Z-score >= 3 and I_(Mean_Ratio) >= 1.4; both purified
[1] = target: ALDH16A1 (human) (UniProt Q8IZ83)
[2] = target: C1orf74 (human) (UniProt Q96LT6)
[3] = target: T1, CSRP1 (human) (UniProt P21291)
T1 sequence: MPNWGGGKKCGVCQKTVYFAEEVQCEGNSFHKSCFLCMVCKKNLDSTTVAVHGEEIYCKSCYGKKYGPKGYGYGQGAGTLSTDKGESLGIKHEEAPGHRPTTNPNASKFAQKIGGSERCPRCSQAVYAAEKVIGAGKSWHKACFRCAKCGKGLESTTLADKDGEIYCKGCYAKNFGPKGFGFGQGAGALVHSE

[4] = target: LNP (human) (UniProt Q9C0E8)
[5] = target: T2, SAMD4B (human) (UniProt Q5PRF9)
T2 sequence: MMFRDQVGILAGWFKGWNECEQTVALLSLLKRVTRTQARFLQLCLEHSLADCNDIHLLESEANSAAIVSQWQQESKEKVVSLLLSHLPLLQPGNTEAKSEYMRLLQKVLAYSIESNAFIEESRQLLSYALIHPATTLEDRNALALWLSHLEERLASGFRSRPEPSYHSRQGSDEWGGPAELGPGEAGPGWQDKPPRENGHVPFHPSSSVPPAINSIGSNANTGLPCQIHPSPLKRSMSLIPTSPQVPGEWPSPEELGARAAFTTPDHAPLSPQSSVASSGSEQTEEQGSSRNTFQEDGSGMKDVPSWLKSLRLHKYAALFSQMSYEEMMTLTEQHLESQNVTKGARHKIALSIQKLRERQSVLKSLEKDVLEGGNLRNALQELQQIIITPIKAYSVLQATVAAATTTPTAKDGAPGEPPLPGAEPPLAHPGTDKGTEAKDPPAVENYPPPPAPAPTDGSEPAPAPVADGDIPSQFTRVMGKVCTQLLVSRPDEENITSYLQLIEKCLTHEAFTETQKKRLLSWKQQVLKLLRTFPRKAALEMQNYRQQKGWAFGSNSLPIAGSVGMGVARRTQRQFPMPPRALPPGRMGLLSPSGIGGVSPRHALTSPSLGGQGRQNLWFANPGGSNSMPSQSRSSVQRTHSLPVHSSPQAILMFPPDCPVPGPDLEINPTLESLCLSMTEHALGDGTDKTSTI

[6] = target: T3, TTC9C (human) (UniProt Q8N5M4)
T3 sequence: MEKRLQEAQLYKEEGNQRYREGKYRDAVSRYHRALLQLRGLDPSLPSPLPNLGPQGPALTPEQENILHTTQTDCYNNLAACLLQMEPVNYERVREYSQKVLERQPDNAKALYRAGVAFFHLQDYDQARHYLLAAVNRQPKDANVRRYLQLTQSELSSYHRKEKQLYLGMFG

[7] = target: T4, XRN2 (human) (UniProt Q9H0D6)
T4 sequence: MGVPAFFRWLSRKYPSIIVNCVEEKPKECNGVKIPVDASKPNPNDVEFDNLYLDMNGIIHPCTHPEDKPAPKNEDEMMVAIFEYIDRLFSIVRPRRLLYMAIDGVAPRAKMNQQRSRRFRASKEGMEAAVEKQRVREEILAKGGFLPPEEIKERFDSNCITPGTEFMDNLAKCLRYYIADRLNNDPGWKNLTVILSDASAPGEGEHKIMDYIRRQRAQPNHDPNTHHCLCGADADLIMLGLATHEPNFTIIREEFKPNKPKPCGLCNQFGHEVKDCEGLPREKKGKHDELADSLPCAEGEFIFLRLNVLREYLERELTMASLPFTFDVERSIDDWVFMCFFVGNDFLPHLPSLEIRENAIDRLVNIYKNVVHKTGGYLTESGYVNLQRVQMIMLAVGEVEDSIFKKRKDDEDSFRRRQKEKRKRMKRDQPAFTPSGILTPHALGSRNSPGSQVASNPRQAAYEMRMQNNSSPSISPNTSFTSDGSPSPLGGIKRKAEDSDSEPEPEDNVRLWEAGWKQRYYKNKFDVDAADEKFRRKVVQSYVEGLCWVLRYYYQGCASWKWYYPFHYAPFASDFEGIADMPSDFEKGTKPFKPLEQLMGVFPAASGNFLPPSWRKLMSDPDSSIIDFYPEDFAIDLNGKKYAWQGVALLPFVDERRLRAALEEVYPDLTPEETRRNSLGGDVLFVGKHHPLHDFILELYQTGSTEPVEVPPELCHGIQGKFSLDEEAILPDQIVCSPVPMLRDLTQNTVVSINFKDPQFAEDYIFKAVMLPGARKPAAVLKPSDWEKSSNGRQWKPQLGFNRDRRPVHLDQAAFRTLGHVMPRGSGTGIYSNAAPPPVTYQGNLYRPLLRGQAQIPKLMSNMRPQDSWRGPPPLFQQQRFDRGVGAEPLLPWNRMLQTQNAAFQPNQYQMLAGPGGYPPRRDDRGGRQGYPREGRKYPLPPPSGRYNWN

Measured: binding

linear ubiquitin chain assembly complex (LUBAC), purified as HIS-tagged HOIP with the subunit HOIL-1, biotin-labelled (from UniProt Q96EP0 1-1072; Q9BYM8 1-510)
binds: all assays above
